# Results deposited as PubChem BioAssay AID504786 (Drosophila RNAi Screening Center, 2011).
# Aim: 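Knock-downs reducing HIF reporter induction by the iron chelator DFO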 (primary screen)
# Cell system: Drosophila S2 cells with a stable HIF luciferase reporter
# Reagent: long dsRNA against Drosophila genes, about 0.2 µg dsRNA per well of a 384-well plate
# Time to read-out: three days of knock-down, then 20 h of DFO before reading
# Challenge: desferrioxamine (DFO) at 100 µM, an iron chelator that mimics hypoxia, for 20 h
# Measured: 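HIF reporter luminescence in cells given 100 µM DFO for 20 h, using the mouse ldh-a hypoxia-response element, scored as per-plate z-scores; higher means greater loss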
# Reading the numbers: z-score: higher = stronger loss of HIF reporter signal
# In all, the deposit lists about 21,000 reagents; this is an unselected part of those with a known target gene and a result. 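Primary screen; positive scores mean lost reporter signal, so the sign may be inverted from the usual convention.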 The numbers tell different reagents against one gene apart. Names joined by + are all predicted targets of the reagent.
target gene,dsRNA no.,"z-score, replicate 1","z-score, replicate 2","z-score, replicate 3","z-score, replicate 4"
Sfxn1-3 (Sideroflexin 1/3),1,-0.3,-0.2,,
P5cr (Pyrroline 5-carboyxlate reductase),1,0.3,0.2,,
Ubr1 (Ubr1 ubiquitin ligase),1,-0.5,0.6,,
CG18234,1,-0.3,-0.3,,
Pur-alpha (Purine-rich binding protein-alpha),1,-0.3,-0.6,,
Nup58 (Nucleoporin 58kD),1,1,0.8,,
Vha100-2 (Vacuolar H[+] ATPase 100kD subunit 2),1,-0.2,-0.5,,
"SmydA-5 (SET and MYND domain containing, arthropod-specific, member 5)",1,-0.1,-0.3,,
MFS10 (Major Facilitator Superfamily Transporter 10),1,-0.3,-0.5,,
CG14186,1,-0.2,-0.1,,
Cdk5alpha (Cdk5 activator-like protein),1,0.5,0.5,,
TM9SF2 (Transmembrane 9 superfamily protein member 2),1,-0.3,-0.5,,
CG14082,1,-0.3,-0.4,,
CG18268 + CG3014,1,-0.2,-0.5,,
"Dnah3 (dynein, axonemal, heavy chain 3)",1,-0.2,-0.4,,
"Dnah3 (dynein, axonemal, heavy chain 3)",2,-0.3,-0.4,,
r (rudimentary),1,1.2,0,,
r (rudimentary),2,1.1,-0.7,,
CG17344,1,-0.2,-0.4,,
ppk21 (pickpocket 21),1,-0.5,-0.6,,
abo (abnormal oocyte),1,-0.1,-0.3,,
Klp59D (Kinesin-like protein at 59D),1,-0.3,0,,
dpn (deadpan),1,-0.2,-0.6,,

Part of the list above, showing only “z-score, replicate 2”.
CG14082: -0.4
CG18268 + CG3014: -0.5
Dnah3 (dynein, axonemal, heavy chain 3) #1: -0.4

The results go on:
target gene,dsRNA no.,"z-score, replicate 1","z-score, replicate 2","z-score, replicate 3","z-score, replicate 4"
velo (veloren),1,0.5,-0.5,,
velo (veloren),2,-0.1,-0.5,,
CG2871,1,-0.3,-0.4,-1,-0.4
CG9799,1,0.4,1.8,,
CG8620,1,-0.5,0.9,,
tkv + CR14033 + tRNA:Asp-GTC-2-1 + 1 more,1,0,-0.2,0.5,-0.4
CG32986,1,-0.3,-0.4,,
CG1304,1,-0.2,-0.3,,
CG14668,1,-0.4,0,,
S1P (Site-1 protease),1,-0.3,-0.5,,
Actn3 (alpha actinin 3),1,-0.4,-0.5,,
Naus (Nausicaa),1,-0.1,-0.6,,
Naus (Nausicaa),2,0.2,-0.5,,
CG5388,1,-0.7,-0.3,,
CG2915,1,-0.3,-0.2,,
CG15198,1,-0.1,-0.5,,
unc80 (uncoordinated 80),1,-0.4,0,,
CG17196,1,-0.4,-0.5,,
Miga (Mitoguardin),1,-0.2,-0.3,,
Ir67b (Ionotropic receptor 67b),1,-0.2,0.2,,
GABA-B-R3 (metabotropic GABA-B receptor subtype 3),1,-0.2,-0.4,,
Mms19,1,-0.4,-0.2,,
Prp39 (pre-mRNA processing factor 39),1,-0.2,0,,
Toll-4,1,-0.4,-0.2,,
CG33298,1,-0.3,-0.3,,
CG33298,2,-0.2,-0.5,,
strat (stratum),1,-0.1,-0.3,,
NC2alpha (Negative Cofactor 2alpha),1,-0.4,-0.5,,
Pkc53E (Protein C kinase 53E),1,-0.1,-0.2,,
Pkc53E (Protein C kinase 53E),2,-0.3,-0.3,,
CheA84a (Chemosensory protein A 84a),1,0,0,,
ms(3)76Ba (male sterile (3) 76Ba),1,-0.2,-0.2,,
CG1598,1,-0.2,-0.5,,
